Out of some 410,000 compounds screened, about 18,000 (4.4%) were called active. Inconclusive results, whose numbers are uncertain, are shown with a selection of clear calls. No stated cut-off is given here; in the data, active means activity change below about -60%; inconclusive means no clear call, values can overlap the other calls; inactive means above about -39%. The source holds several records for some structures; these can differ, active in one and inactive in another.
Experiment: qHTS Assay for inhibitors of the human cytomegalovirus (HCMV)
Details: HFF cells, HCMV-luciferase reporter, 72 h; at 57.5 µM; active compounds read low
Outline: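 Steps: HFFs plated, 16 h 37C; compounds added; HCMV-luciferase added to MOI 1 PFU/cell; 72 h 37C; OneGlo reagent, 5 min room temperature; luminescence read, normalized to controls.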
On the % scale 0 is the no-effect control and ±100 the full control effect.

Structure (SMILES)	activity change, negative = inhibition
CCc1nn(C(CC)C(=O)NCc2cccs2)c(=O)c2cc3occc3n12 (stereo unspecified)	inconclusive: -43.9%
O=C(c1ccco1)N1CCN(c2ccnc3cc(Cl)ccc23)CC1	inconclusive: -54.4%
O=C(OCC(=O)N1CCCC1=O)C1CCN(S(=O)(=O)c2c(Cl)cccc2Cl)CC1	inconclusive: -40.4%
COc1cc(CN2CCC(n3nccc3NC(=O)CCCc3ccccc3)CC2)ccc1F	inconclusive: -48.2%
Nc1nc(NC2CCCCC2)nc(NCCO)c1[N+](=O)[O-]	inconclusive: -44.2%
O=C(NN=C1c2ccccc2-c2ccccc21)c1cccc(Br)c1	inconclusive: -59.5%
CC(C)c1cccc(C2=CC(=O)C[C@H](c3ccc(F)cc3)C2)c1	inconclusive: -46.2%
CC(O)/C=C/c1ccc2ccccc2n1 (stereo unspecified)	inconclusive: -54.6%
CC1=C(C(=O)N(C(C)C)C(C)C)CC(CC(=O)NCc2cccc3ccccc23)C(=O)N1Cc1ccc(C(C)(C)C)cc1 (stereo unspecified)	inconclusive: -50.7%
CCCn1nnnc1NC(=O)COc1ccc(CC)cc1	inconclusive: -46%
Nc1ccccc1-n1cccc1	inactive: 81.3%
COc1ccc(OC(C)c2ccc(C#N)c(=O)[nH]2)cc1 (stereo unspecified)	inconclusive: -40%
CCN1c2ccccc2-c2nc(SCC(=O)Nc3c(C)cc(C)cc3C)ncc2S1(=O)=O	inactive: -14.3%
COc1cccc(-n2c(-c3ccco3)nc3c(cnn3-c3ccc(C)cc3)c2=O)c1	active: -76%
Cc1ccc(NC(=O)NCC2CCN(Cc3cccc(Cl)c3)CC2)cc1Cl	active: -92.5%
O=C(c1ccc(Br)o1)N1CCN(c2ccccc2F)CC1	inconclusive: -40.8%
CC(C)(C)c1ccc(C(=O)N2CCC(C(=O)NCCC3=CCCCC3)CC2)cc1	inactive: 10.5%
CC(C)CCN(C(=S)Nc1cccc(C(F)(F)F)c1)C(C)c1ccccn1 (stereo unspecified)	inconclusive: -44.3%
COc1ccc(-c2noc3c2-c2nc(-c4ccc(C)cc4)sc2CC3)cc1	inconclusive: -50.6%
COc1ccc(CN(C(=O)c2snc(C(N)=O)c2N)C(C(=O)NC2CCCC2)c2ccc(OC)c(OC)c2)cc1 (stereo unspecified)	inconclusive: -46.6%
Cc1c2c(nc3ccccc13)OCC2	inconclusive: -50.7%
c1cc2c(cnc3cscc32)s1	inconclusive: -40.1%

Shown bar-delimited: entries from further up
Structure (SMILES) | activity change, negative = inhibition
O=C(NN=C1c2ccccc2-c2ccccc21)c1cccc(Br)c1 | inconclusive: -59.5%
CC(O)/C=C/c1ccc2ccccc2n1 (stereo unspecified) | inconclusive: -54.6%
CCCn1nnnc1NC(=O)COc1ccc(CC)cc1 | inconclusive: -46%
CCN1c2ccccc2-c2nc(SCC(=O)Nc3c(C)cc(C)cc3C)ncc2S1(=O)=O | inactive: -14.3%
Cc1ccc(NC(=O)NCC2CCN(Cc3cccc(Cl)c3)CC2)cc1Cl | active: -92.5%
CC(C)CCN(C(=S)Nc1cccc(C(F)(F)F)c1)C(C)c1ccccn1 (stereo unspecified) | inconclusive: -44.3%

Later entries:

Structure (SMILES)	activity change, negative = inhibition
Cc1ccnc(NC(=O)CCCOc2ccc(Cl)cc2C)c1	inconclusive: -48.5%
Cc1ccc(S(=O)(=O)N2CCCN(S(=O)(=O)c3ccc(C)c(C)c3)CC2)cc1C	inconclusive: -40.4%
CCN1C(=O)C(=C2C=C(C)N(Cc3ccco3)C(C)=C2)C(=O)N(CC)C1=S	inconclusive: -40.6%
COc1ccc(-c2nnc3ccc(SCC(=O)Nc4nccs4)nn23)cc1OC	inconclusive: -42.2%
CN(C(=O)CSc1nc2ccc(NC(=O)CCc3ccccc3)cc2s1)c1ccccc1	inconclusive: -47.8%
Cc1nc(SCC(=O)c2cc(C)n(C3CC3)c2C)c2ccccc2n1	inconclusive: -49.9%
Cc1ccc(/C=N/NC(=O)CSc2nc3ccccc3s2)o1	inconclusive: -40.6%
CCn1c(SC(C)C(=O)Nc2ccc(N3CCOCC3)cc2)nnc1-c1ccco1 (stereo unspecified)	inconclusive: -41.6%
O=C(CSc1nc2ccccc2nc1Cc1ccc(Cl)cc1)N1CCN(c2ccccc2F)CC1	inconclusive: 0%
Cc1ccc(NC(=O)COc2coc(CN3CCN(Cc4ccccc4)CC3)cc2=O)cc1	inconclusive: -59.9%
Cc1ccc(N(Cc2cc(=O)[nH]c3ccccc23)C(=O)CCl)c(C)c1	active: -97.4%
CCCCNC(=O)CCn1c(=O)c2cccn2c2ccc(F)cc21	inconclusive: -54.1%
COC(=O)c1ccc(CN(c2ccc(OC)cc2)S(=O)(=O)c2ccccc2)cc1	inconclusive: -41.3%
CCc1nc(N=Nc2c(O)[nH]c3ccccc23)c2c3c(sc2n1)CCC3	inconclusive: -55.2%
N#Cc1c(Cl)nsc1NN	active: -104%
Cc1nnc(SCC(=O)Nc2cc(C(C)(C)C)nn2-c2ccccc2)s1	inconclusive: -41.4%
CCCc1cc(=O)[nH]c(SCC(=O)Nc2ccccc2C#N)n1	inconclusive: -44.5%
CC1(C)CC2CC(C)(CN2C(=O)CN2C(=O)c3ccccc3C2=O)C1 (stereo unspecified)	inactive: -25.2%
COc1cccc(CNC(=O)CSc2nc3ccccc3nc2Cc2ccc(C)cc2)c1OC	active: -91.9%
CN(C)c1ccc(-c2csc(C(C)(O)c3ccccc3)n2)cc1 (stereo unspecified)	inconclusive: -54.4%
CCCCNC(=O)C1c2ccccc2Oc2ccccc21	inconclusive: -40.4%
CCOC(=O)c1cn(-c2c(Cl)cccc2Cl)c2cc(Cl)c([N+](=O)[O-])cc2c1=O	inconclusive: -58.1%

Structure (SMILES)	activity change, negative = inhibition
Cc1c(CN2CCc3c([nH]c4ccccc34)C2CC(C)C)cnn1C (stereo unspecified)	inactive: -5.34%
CC(=O)N1CCc2cc(S(=O)(=O)CCC(=O)N3CCN(c4ccccc4)CC3)ccc21	inconclusive: -57.9%
CO/N=C(/CS(=O)Cc1ccc(Cl)cc1)c1ccc(Cl)cc1 (stereo unspecified)	inconclusive: -44.9%
O=C(/C=C/c1ccccc1[N+](=O)[O-])N1CCN(c2ccc(F)cc2)CC1	inconclusive: -54%
COc1ccccc1NC(=O)Cn1cnc2c1c(=O)n(C)c(=O)n2C	inconclusive: -45.2%
Cc1ccc2nc(/C(C#N)=C/c3ccccc3C(=O)O)[nH]c2c1	inactive: 50.3%
COc1ccc(C(CC(=O)N2CCCC(C)C2)c2c(OC)cc(OC)c3c(-c4ccccc4)cc(=O)oc23)cc1 (stereo unspecified)	active: -68.4%
C/C(=N\NC(=O)c1nnn(-c2nonc2N)c1-c1ccc2c(c1)OCO2)c1cccs1	inconclusive: 0%
CCCOc1ccc(CC(CC(=O)O)(C(=O)O)C(=O)O)cc1	inconclusive: -43.2%
O=C(COC(=O)c1ccc(S(=O)(=O)N2CCCCC2)cc1)NC1CCCCC1	inactive: -27.8%
O=[N+]([O-])c1cccc(NC(=S)N2CCCC2)c1	inconclusive: -57.3%
O=C(CCS(=O)(=O)c1nc(-c2ccc3c(c2)OCO3)cc(C(F)(F)F)n1)Nc1ccc(F)c(Cl)c1	active: -99.9%
O=C(NC1CCCCC1)N(CCN1CCOCC1)Cc1cc2cc3c(cc2[nH]c1=O)OCCO3	inconclusive: -55.7%
CCOc1ccc(-c2cc(CCCC(=O)NCCc3ccc(OC)c(OC)c3)no2)cc1	inconclusive: -45.2%
CNc1cncc(-c2ccc(F)cc2F)n1	inconclusive: -57.2%
CCc1nn(CC(=O)NCCN2CCN(C)CC2)c(=O)c2cc3occc3n12	active: -104%
Cc1cc(Br)cc2cn[nH]c12	inconclusive: -53.4%
COc1cc(/C=N/NC(=O)c2ccc(C)nc2)cc([N+](=O)[O-])c1O	inconclusive: -44.9%
CNc1ccccc1C(C)(C)c1cc(-c2cccc([N+](=O)[O-])c2)no1	inconclusive: -45.2%
Fc1ccccc1-c1csc(=Nc2cccnc2)n1CCCn1ccnc1	active: -90.2%
O=C(Cn1nnc(-c2ccccc2)n1)Nc1ccc2c(c1)OCO2	inactive: 32%
COc1cccc(NC(=O)Cn2c(=O)n(CCCCC(=O)NCc3ccc4c(c3)OCO4)c(=O)c3ccccc32)c1	inconclusive: -53%

Structure (SMILES)	activity change, negative = inhibition
C#CCNC(=O)C1=C[C@@H](C2CC2)C[C@@H](OCc2ccc(CO)cc2)O1	inactive: 1.25%
COc1ccc(-c2cc(C(F)(F)F)nc(SCCC(=O)N3CCN4CCCC4C3)n2)cc1 (stereo unspecified)	inconclusive: -54.3%
O=C(NCCc1c[nH]c2ccccc12)C(=O)NCC1OCCCN1S(=O)(=O)c1cc(F)ccc1F (stereo unspecified)	inconclusive: -52.6%
O=c1nc(-c2ccccc2)n(-c2ccc(Cl)cc2)[nH]1	inconclusive: -47.6%
Clc1cccc(Cl)c1-c1nnc2ccc(N3CCOCC3)nn12	inactive: 8.92%
Cc1cccc(CS(=O)(=O)Cc2ccc(C(=O)NCCN3CCCCC3C)o2)c1 (stereo unspecified)	inconclusive: -53.3%
C/C=C/C(=O)Nc1nnc(C2CCCCC2)s1	inconclusive: -48.3%
COC(=O)c1nn(-c2ccc(OC)cc2)c(=O)c2c(N)sc(C)c12	inconclusive: -42.8%
CCOC(=O)c1c(C)c(C)n(Cc2ccc(OC)c(OC)c2)c1C	inconclusive: -48.1%
O=S(=O)(O)c1ccc(NN=Cc2ccccc2O)cc1	inconclusive: -43.7%
N#Cc1ccc(/C=C\c2nccc3c2[nH]c2ccccc23)cc1	active: -76.5%
CC(C(=O)OCC(=O)c1ccc([N+](=O)[O-])cc1)N1C(=O)C2C3C=CC(C3)C2C1=O (stereo unspecified)	inactive: -34.9%
Cc1ccc(C(C)C)c(OCCCn2c(=O)oc3ccc(C)cc32)c1	inactive: -16.9%
O=S(=O)(c1ccccc1)N1CCN=C1SCc1ccc(Cl)c(Cl)c1	active: -74.2%
Cc1[nH]nc2nc(SCC(=O)NC3CCCCC3)n(-c3ccc(Br)cc3)c(=N)c12	active: -88.7%
Cc1ccc(NC(=O)Cn2c(=O)cnc3ccccc32)cc1S(=O)(=O)N1CCCCC1	inconclusive: -54.6%
CCOC(=O)c1c(NC(=O)c2nn(C)cc2[N+](=O)[O-])sc(C)c1C	inactive: 65.8%
Cc1cccc(NC(=O)c2oc3ccc(S(=O)(=O)N(C)C4CCCCC4)cc3c2C)c1C	active: -75.3%
CC(=O)NC1=NC(=O)/C(=C/c2cn(C(C)=O)nc2-c2ccccc2)S1	inconclusive: -50%
Cc1ccc(C)c(S(=O)(=O)N2CC(=O)Nc3ccccc32)c1	inconclusive: -48.6%

— PubChem BioAssay AID1259415 (National Center for Advancing Translational Sciences (NCATS), 2018)
